Among the data in patent US20030049646A1 are binding values, retold here.

Chains of the proteins cited; added tags and fusions are not shown. Lines headed by an entry give the natural chain unless they say otherwise; changes in a name come on top.
UniProt P04386: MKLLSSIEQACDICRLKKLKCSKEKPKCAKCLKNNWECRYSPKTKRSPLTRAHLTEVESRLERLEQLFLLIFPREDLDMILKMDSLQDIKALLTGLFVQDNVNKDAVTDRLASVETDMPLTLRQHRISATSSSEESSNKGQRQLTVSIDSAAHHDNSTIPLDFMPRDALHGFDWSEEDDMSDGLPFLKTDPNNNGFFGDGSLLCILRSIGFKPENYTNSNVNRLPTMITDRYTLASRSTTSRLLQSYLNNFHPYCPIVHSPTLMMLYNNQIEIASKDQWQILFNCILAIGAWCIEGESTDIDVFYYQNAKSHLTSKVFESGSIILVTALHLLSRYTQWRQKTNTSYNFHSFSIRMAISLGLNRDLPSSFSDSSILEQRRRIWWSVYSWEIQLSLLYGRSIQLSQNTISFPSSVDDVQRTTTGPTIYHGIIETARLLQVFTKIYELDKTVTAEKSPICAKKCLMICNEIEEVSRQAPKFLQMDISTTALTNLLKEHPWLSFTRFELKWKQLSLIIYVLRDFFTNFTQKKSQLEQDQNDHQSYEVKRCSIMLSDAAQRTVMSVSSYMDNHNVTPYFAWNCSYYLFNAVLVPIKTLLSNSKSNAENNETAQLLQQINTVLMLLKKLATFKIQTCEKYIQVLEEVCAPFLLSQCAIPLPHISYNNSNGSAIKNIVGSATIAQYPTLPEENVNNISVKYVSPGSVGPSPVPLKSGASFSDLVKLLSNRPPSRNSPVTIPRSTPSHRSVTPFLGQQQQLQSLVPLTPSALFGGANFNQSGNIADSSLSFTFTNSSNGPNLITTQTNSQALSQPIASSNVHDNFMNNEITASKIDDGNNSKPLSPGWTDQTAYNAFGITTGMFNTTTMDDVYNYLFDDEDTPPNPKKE

For assay [1], the target named is Kv2.1 N-terminus (amino acids 1-168), in pGBT9 (UniProt P04386). Description: yeast two-hybrid (Y190, pGAD10 x pGBT9), β-galactosidase filter assay.
Assay [2] has as its target Kvβ1C (carboxyl terminal 329 amino acids of the Kvβ1 subfamily), in pGBT9 (UniProt P04386). Described as above.

No constants are given. Whether binding was seen depends on the method and setting. Some entries that bind do so weakly or less than the wild type.

B1: KChAP-Y (partial clone of KChAP from W310 to the C-terminus), in pGAD10 (protein, not shown: large carriers)
chain: WTCPVCDKKAPYESLIIDGLFMEILNSCSDCDEIQFMEDGSWCPMKPKKEASEVCPPPGYGLDGLQYSPVQEGNQSENKKRVEVIDLTIESSSDEEDLPPTKKHCPVTSAAIPALPGSKGALTSGHQPSSVLRSPAMGTLGSDFLSSLPLHEYPPAFPLGADIQGLDLFSFLQTESQHYSPSVITSLDEQDTLGHFFQFRGTPPHFLGPLAPTLGSSHRSATPAPAPGRVSSIVAPGSSLREGHGGPLPSGPSLTGCRSDVISLD
As to B1, the binding entry in assay [1] and in assay [2] was “binds” each time.

B2: KChAP (K+ Channel Associated Protein), full length, in pGAD10 (protein, not shown: large carriers)
chain: MKIKELYRRRFPRKTLGPSDLSLLSLPPGTSPVGSPSPLASIPPTLLTPGTLLGPKREVDMHPPLPQPVHPDVTMKPLPFYEVYGELIRPTTLASTSSQRFEEAHFTFALTPQQLQQILTSREVLPGAKCDYTIQVQLRFCLCETSCPQEDYFPPNLFVKVNGKLCPLPGYLPPTKNGAEPKRPSRPINITPLARLSATVPNTIVVNWSSEFGRNYSLSVYLVRQLTAGTLLQKLRAKGIRNPDHSRALIKEKLTADPDSEVATTSLRVSLMCPLGKMRLTVPCRALTCAHLQSFDAALYLQMNEKKPTWTCPVCDKKAPYESLIIDGLFMEILNSCSDCDEIQFMEDGSWCPMKPKKEASEVCPPPGYGLDGLQYSPVQEGNQSENKKRVEVIDLTIESSSDEEDLPPTKKHCPVTSAAIPALPGSKGALTSGHQPSSVLRSPAMGTLGSDFLSSLPLHEYPPAFPLGADIQGLDLFSFLQTESQHYSPSVITSLDEQDTLGHFFQFRGTPPHFLGPLAPTLGSSHRSATPAPAPGRVSSIVAPGSSLREGHGGPLPSGPSLTGCRSDVISLD
For B2, the binding entry in assay [1] and in assay [2] was “binds” throughout.
